Results taken from PubChem BioAssay AID2685 (National Center for Advancing Translational Sciences (NCATS), 2010).
The list shows a part of the results. Further columns of the screen follow, without active or inactive calls. The list favours compounds with an active or inconclusive main result. Potencies come from curve fits of mixed quality, noted in brackets.

Test: qHTS Assay for Lipid Storage Modulators in Drosophila S3 Cells;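 for cell number change: cells counted by Cell Tracker Red CMTPX staining in the red channel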
Conditions: BODIPY lipid droplet fluorescence, 18-24 h; for cell number change: measured here: cell count max response, cells fed with added oleic acid
In short: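 Drosophila S3 cells got compounds at several concentrations plus oleic acid (400 uM solution). Laser-scanning cytometry with 488 nm excitation read lipid droplets at 500-530 nm and cells at 575-640 nm. Percent activity was relative to 20 uM Triacsin C.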

[1] = measured here: lipid fluorescence (Fed channel) AC50, cells fed with added oleic acid
[2] = measured here: cell number channel AC50, cells fed with added oleic acid

SMILES: Cc1ccc(NC(=O)c2cc(S(=O)(=O)N3CCCCC3)cs2)cc1
- AC50 [1]: 6.51 µM [rising, single point]

SMILES: COc1ccc(Cl)cc1NC(=O)CN(C)C(=O)c1cc2c(s1)CCC(C)C2 (configuration not stated)
- cell number change: 45.8%
- AC50 [2]: 5.8 µM [rising, full curve, poor fit]

SMILES: CCc1ccc(CCC(=O)Nc2ccc(C)cc2C)o1
- cell number change: 0.948%
- AC50 [1]: 2.91 µM [rising, full curve]

SMILES: O=C(NNC(=S)Nc1ccccc1)c1cc(Br)ccc1Cl
- cell number change: 56.4%
- AC50 [2]: 29.1 µM [rising, single point]

SMILES: O=C(NC(=S)N(CCO)Cc1ccccc1)c1ccc(F)cc1Cl
- cell number change: -13.5%
- AC50 [1]: 3.26 µM [falling, partial curve]

SMILES: OC1(c2ccc(Br)cc2)CCNCC1
- cell number change: -37.9%
- AC50 [2]: 1.16 µM [falling, full curve]
- AC50 [1]: 29.1 µM [falling, partial curve]

SMILES: Cc1nn(CC(=O)NCC2CCCO2)c(=O)c2ccccc12 (configuration not stated)
- cell number change: 0.287%

SMILES: Cc1cc(C(=O)NC2CC2)c2ccccc2n1
- cell number change: -4.82%
- AC50 [1]: 0.517 µM [falling, single point]

SMILES: S=c1[nH]nc(Cn2cnc3ccccc32)n1-c1ccccc1
- cell number change: -23.6%

SMILES: O=c1c(Cl)c(NCCCO)cnn1-c1nc2ccccc2[nH]1
- cell number change: -65.6%
- AC50 [2]: 20.6 µM [falling, single point]
- AC50 [1]: 18.4 µM [falling, single point]

SMILES: CCOC(=O)c1cc2c(nc1C)-c1cc(Cl)cc(Cl)c1OC2O (configuration not stated)
- AC50 [1]: 2.06 µM [rising, partial curve]

SMILES: O=C(CC1(O)C(=O)N(CCc2ccccc2)c2ccccc21)c1ccco1 (configuration not stated)
- cell number change: 5.68%
- AC50 [1]: 0.00461 µM [rising, full curve, poor fit]

SMILES: Cc1ccc(CN2CCC(n3nccc3NC(=O)CCOc3ccccc3)CC2)o1
- cell number change: 31.2%
- AC50 [2]: 32.6 µM [rising, single point]

SMILES: CCOC(=O)c1cnn(-c2ccccc2)c1-n1cccc1C(=O)C(=O)N(C)C
- cell number change: -41.2%
- AC50 [2]: 2.91 µM [falling, single point]

SMILES: CCOC(=O)c1sc(NC(=O)CSc2nnc(Cc3ccccc3)o2)c(C(=O)OCC)c1C
- AC50 [2]: 0.13 µM [rising, full curve, poor fit]
- AC50 [1]: 0.517 µM [rising, full curve]

SMILES: CC(C)NC(=O)c1ccc(COc2cc(Cl)ccc2Cl)o1
- cell number change: 2.82%
- AC50 [2]: 0.82 µM [falling, single point]
- AC50 [1]: 0.731 µM [falling, full curve]

SMILES: COc1cc2c(C(=O)N3CCN(c4cccc(Cl)c4)CC3)cn(C)c(=O)c2cc1OC
- cell number change: 140%
- AC50 [2]: 2.59 µM [rising, full curve]

SMILES: COc1ccc(NC(=O)c2cc(-c3cccs3)on2)cc1
- cell number change: 13.8%

SMILES: Cn1c(=O)cc(OCCCC(=O)NCc2cccnc2)c2ccccc21
- cell number change: -24.7%
- AC50 [1]: 7.31 µM [falling, partial curve]

SMILES: COC(=O)c1ccc(Nc2nc(C)cc(C)n2)cc1
- cell number change: 29%

SMILES: Cc1ccc(OCC(O)Cn2c(NCCc3ccccc3)nc3c2c(=O)[nH]c(=O)n3C)cc1 (configuration not stated)
- AC50 [2]: 0.13 µM [rising, full curve, poor fit]

SMILES: Cc1cccc(OCc2nnc(SCC(=O)N(C)C3CCCCC3)o2)c1
- cell number change: 78.3%
- AC50 [2]: 8.2 µM [rising, partial curve]

SMILES: Nc1cc(=O)[nH]c(SCc2csc(-c3ccccc3)n2)n1
- cell number change: -19.3%
- AC50 [1]: 0.651 µM [rising, single point]

SMILES: O=C(O)/C=C/c1cnc2ccccc2c1
- cell number change: 12.4%

SMILES: Cn1c(NCc2ccco2)nc2c1c(=O)n(Cc1ccc(Cl)cc1)c(=O)n2C
- cell number change: -18.7%
- AC50 [1]: 6.51 µM [rising, single point]

SMILES: CCc1nc(N2CCN(S(C)(=O)=O)CC2)c2c3c(sc2n1)CCCC3
- cell number change: 28.2%
- AC50 [1]: 2.91 µM [rising, single point]

SMILES: COc1ccc(-c2cc(-c3n[nH]c(=S)n3-c3cccc4ccccc34)[nH]n2)cc1
- cell number change: -8.82%

SMILES: COc1ccc(C2c3ccc(O)cc3Oc3ncn(CCN4CCOCC4)c(=N)c32)cc1OC (configuration not stated)
- cell number change: -34.4%
- AC50 [2]: 0.00517 µM [falling, full curve, poor fit]

SMILES: COc1cc(C(=O)Nc2ccc3c(c2)CCN3C(C)=O)cc(OC)c1OC
- cell number change: 33.6%
- AC50 [2]: 32.6 µM [rising, single point]

SMILES: CCOC(=O)c1nc(NCCc2ccccc2)sc1C
- cell number change: -127%
- AC50 [2]: 29.1 µM [falling, partial curve]
- AC50 [1]: 0.731 µM [falling, single point]

SMILES: O=Cc1ccc(OCCCOc2cccc3cccnc23)cc1
- cell number change: -25.3%

SMILES: O=C(O)c1cc([N+](=O)[O-])ccc1NCc1ccccn1
- cell number change: 2.19%
- AC50 [1]: 4.11 µM [falling, single point]

SMILES: N#CCC(=O)N/N=C/c1coc2ccccc2c1=O
- AC50 [1]: 16.4 µM [rising, single point]

SMILES: CC(C)c1cc(NC(=O)CCl)on1
- cell number change: -4.64%
- AC50 [2]: 0.326 µM [falling, single point]
- AC50 [1]: 0.58 µM [falling, single point]

SMILES: CCc1ccc(OCC(O)CNC(C)(C)C)cc1 (configuration not stated)
- cell number change: 23.1%
- AC50 [2]: 0.00411 µM [rising, full curve, poor fit]
- AC50 [1]: 3.26 µM [rising, single point]

SMILES: CCCCN(CCCC)Cc1cc2ccccc2c2c1COC2
- cell number change: -10.9%
- AC50 [2]: 4.11 µM [rising, partial curve, poor fit]

SMILES: Cc1oc2cc3oc(=O)c(CC(=O)NCCCC(=O)O)c(C)c3cc2c1C
- cell number change: -8.19%
- AC50 [1]: 4.11 µM [falling, single point]

SMILES: CCc1ccccc1NC(=O)c1cc(-c2ccc(OC)cc2)on1
- cell number change: -20.8%
- AC50 [1]: 2.59 µM [rising, full curve]

SMILES: COc1ccc(N(C(=O)CCC(=O)Nc2cc(C)on2)C(C(=O)NC2CCCC2)c2ccco2)cc1 (configuration not stated)
- cell number change: 65.7%
- AC50 [2]: 29.1 µM [rising, single point]

SMILES: CC(=O)Nc1ccc(NC(=O)C2CC(=O)N(c3cccc(C)c3C)C2)cc1 (configuration not stated)
- cell number change: 5.15%
- AC50 [1]: 1.3 µM [rising, partial curve]

SMILES: CCC(=O)NCCNc1nc2cc(C)c(C)cc2cc1C#N
- cell number change: -19.5%
- AC50 [1]: 0.103 µM [falling, full curve, poor fit]
